Publication PMC5850909
No constants are given. Whether binding was seen depends on the method and setting. Binding seen in cells or lysates may run through a third protein. Some results given as binding are weak or reduced against the parent protein; the word gives no strength.

Sequences of proteins named here, by UniProt entry; tags and fusion partners are left off. A change or cut given only in a name is not applied to a line headed by its entry.
UniProt Q9HAU4: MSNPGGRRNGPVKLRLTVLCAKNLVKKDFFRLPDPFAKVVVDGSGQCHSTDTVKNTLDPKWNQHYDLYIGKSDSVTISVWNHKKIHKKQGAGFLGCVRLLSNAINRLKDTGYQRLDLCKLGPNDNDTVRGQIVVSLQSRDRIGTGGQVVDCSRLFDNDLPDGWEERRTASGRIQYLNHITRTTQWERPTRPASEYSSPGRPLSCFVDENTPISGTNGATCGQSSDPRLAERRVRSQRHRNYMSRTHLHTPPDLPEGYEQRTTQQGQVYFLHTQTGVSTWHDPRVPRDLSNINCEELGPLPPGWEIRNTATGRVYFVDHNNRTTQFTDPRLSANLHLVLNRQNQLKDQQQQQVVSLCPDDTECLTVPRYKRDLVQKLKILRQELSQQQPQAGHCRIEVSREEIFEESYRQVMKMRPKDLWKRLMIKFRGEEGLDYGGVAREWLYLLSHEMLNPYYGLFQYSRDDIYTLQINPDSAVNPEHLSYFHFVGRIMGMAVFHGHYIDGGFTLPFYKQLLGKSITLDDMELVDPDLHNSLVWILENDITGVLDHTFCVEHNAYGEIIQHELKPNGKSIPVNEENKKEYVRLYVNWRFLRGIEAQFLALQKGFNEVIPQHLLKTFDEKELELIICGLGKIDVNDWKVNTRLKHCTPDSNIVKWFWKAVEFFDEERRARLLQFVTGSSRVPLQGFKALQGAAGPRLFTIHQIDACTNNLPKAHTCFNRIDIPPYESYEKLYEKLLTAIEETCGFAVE
UniProt Q8WXI2: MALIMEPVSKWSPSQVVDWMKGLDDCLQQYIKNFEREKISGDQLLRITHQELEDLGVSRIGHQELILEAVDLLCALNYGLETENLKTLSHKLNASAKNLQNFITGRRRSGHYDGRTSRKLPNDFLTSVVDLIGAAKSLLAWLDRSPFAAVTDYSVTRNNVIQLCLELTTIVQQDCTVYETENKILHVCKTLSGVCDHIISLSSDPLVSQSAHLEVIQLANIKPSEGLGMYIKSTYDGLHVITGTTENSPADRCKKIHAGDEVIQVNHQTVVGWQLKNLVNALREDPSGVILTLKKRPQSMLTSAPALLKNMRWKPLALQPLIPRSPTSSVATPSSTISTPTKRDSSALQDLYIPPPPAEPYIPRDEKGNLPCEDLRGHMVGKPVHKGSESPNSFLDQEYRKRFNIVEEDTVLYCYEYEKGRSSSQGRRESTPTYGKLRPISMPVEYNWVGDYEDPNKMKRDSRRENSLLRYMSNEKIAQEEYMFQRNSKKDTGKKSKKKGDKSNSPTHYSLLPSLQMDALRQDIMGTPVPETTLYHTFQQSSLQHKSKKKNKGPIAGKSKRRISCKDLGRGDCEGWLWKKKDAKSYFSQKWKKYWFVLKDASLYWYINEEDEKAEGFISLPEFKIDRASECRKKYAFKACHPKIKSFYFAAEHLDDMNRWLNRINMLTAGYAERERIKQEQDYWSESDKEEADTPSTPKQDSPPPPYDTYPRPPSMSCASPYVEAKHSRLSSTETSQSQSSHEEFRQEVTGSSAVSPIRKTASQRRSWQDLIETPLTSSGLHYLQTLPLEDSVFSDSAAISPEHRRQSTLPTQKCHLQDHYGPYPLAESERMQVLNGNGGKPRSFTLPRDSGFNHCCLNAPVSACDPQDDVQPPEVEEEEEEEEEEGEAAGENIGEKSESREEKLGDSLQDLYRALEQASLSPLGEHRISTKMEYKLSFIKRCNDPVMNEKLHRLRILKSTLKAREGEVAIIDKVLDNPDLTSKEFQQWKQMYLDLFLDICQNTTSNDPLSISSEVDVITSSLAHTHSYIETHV
UniProt Q9HCE7: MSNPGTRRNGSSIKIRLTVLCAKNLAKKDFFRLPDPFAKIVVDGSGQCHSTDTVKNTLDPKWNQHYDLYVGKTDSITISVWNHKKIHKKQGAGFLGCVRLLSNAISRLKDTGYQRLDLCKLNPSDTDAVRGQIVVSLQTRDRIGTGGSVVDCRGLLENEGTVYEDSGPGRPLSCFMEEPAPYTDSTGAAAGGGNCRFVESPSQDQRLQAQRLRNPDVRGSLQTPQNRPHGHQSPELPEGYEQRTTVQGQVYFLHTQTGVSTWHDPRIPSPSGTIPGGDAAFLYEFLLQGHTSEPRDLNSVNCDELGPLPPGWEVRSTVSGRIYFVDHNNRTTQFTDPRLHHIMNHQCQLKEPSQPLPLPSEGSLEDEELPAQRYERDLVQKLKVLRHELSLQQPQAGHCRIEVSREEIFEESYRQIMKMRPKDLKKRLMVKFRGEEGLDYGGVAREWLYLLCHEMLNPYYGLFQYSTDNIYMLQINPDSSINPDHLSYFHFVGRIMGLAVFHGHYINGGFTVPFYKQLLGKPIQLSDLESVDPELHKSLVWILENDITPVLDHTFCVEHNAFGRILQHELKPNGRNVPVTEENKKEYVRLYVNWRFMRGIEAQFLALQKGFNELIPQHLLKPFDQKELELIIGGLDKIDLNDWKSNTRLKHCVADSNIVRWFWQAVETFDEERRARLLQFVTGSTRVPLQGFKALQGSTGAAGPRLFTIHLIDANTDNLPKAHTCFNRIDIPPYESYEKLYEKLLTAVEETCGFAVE

Columns and labels:
[1] = target: Smad ubiquitin regulatory factor 2 (Smurf2), endogenous (human (endogenous in MDA-MB-231)) (UniProt Q9HAU4); experiment: co-IP; endogenous proteins from MDA-MB-231 lysate (70 mM NaCl, 50 mM Tris pH 8, 0.5% NP-40); IP with rabbit CNKSR2 or rabbit Smurf2 antibody, normal rabbit IgG as control, protein A sepharose; immunoblot
Flag-tagged Smurf2 C716A = Flag-tagged Smurf2 C716A (UniProt Q9HAU4); experiment: co-IP; HEK293 cells transfected with Flag-Smurf2 WT, Flag-Smurf2 C716A or empty vector, 48 h; IP with anti-Flag antibody; immunoblot for endogenous CNKSR2
Flag-tagged Smurf2 WT = Flag-tagged Smurf2 WT (UniProt Q9HAU4); experiment: as above
[2] = target: Connector enhancer of kinase suppressor of ras 2 (CNKSR2), endogenous (human (endogenous in MDA-MB-231 and HEK293)) (UniProt Q8WXI2); experiment: co-IP; endogenous proteins from MDA-MB-231 lysate (70 mM NaCl, 50 mM Tris pH 8, 0.5% NP-40); IP with rabbit CNKSR2 or rabbit Smurf2 antibody, normal rabbit IgG as control, protein A sepharose; immunoblot

binding [1] | binding (Flag-tagged Smurf2 C716A) | binding (Flag-tagged Smurf2 WT) | binding [2] | Substance
binds | binds | binds |  | Connector enhancer of kinase suppressor of ras 2 (CNKSR2), endogenous (from UniProt Q8WXI2 1-1034)
 |  |  | binds | Smad ubiquitin regulatory factor 2 (Smurf2), endogenous (from UniProt Q9HAU4 1-748)
 |  |  | no binding | Smurf1, endogenous (from UniProt Q9HCE7 1-757)
